From PubChem BioAssay AID588590 (National Center for Advancing Translational Sciences (NCATS), 2011)
The whole screen tested about 390,000 compounds, of which about 4,000 (1%) were called active. Inconclusive means that the source gave no clear call. Such entries were picked first, then a sample of the others. Calls come from the whole dose curve; as a rule, active = well fitted inhibition curve with a large enough effect; inconclusive = small, poorly fitted or top-dose-only effect, or another doubt; inactive = no such curve, though single readings can be large or run the other way. Potencies beside an inconclusive call are fits to weak or partial responses and may not hold up.

The chains behind the UniProt entries cited, without tags or fusion partners. Where a name states a change or a piece, a line headed by the entry shows the natural chain unless it says otherwise.
UniProt Q9UNA4: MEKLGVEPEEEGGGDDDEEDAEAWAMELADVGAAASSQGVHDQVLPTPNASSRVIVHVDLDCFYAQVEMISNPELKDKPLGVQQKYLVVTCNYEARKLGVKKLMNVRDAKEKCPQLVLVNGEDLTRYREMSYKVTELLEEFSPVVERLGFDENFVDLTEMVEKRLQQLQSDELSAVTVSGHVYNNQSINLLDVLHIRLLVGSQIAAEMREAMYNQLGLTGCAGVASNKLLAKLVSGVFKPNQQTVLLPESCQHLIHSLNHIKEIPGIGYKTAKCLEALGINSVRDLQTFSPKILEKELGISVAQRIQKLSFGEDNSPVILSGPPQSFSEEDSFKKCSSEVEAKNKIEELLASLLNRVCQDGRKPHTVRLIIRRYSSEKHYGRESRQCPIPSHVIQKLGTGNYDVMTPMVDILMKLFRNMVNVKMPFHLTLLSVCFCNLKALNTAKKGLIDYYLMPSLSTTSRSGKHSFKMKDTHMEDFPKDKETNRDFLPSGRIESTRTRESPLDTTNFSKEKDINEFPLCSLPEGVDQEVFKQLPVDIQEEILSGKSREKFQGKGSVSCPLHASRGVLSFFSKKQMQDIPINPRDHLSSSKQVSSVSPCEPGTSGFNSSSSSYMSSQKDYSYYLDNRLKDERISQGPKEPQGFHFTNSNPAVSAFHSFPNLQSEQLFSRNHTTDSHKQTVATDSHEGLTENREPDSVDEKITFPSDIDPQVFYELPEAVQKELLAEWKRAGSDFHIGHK

biological target: DNA polymerase iota (Homo sapiens) (UniProt Q9UNA4); test: qHTS for Inhibitors of Polymerase Iota; conditions: Pol iota fluorescent replication assay, 10 min; series mostly up to 115 µM
How it was run: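 Fluorescent replication assay read twice, at 0 min and 10 min after adding 50 nM (final) substrate. Enzyme (10 nM) and compounds were first incubated 15 min at room temperature; enzyme-free buffer wells were negative controls.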
Potency is the fitted concentration of half-maximal effect.

Potency, inconclusive:
COc1ccc(S(=O)(=O)N2CCOC2CNC(=O)C(=O)NCc2cccnc2)cc1OC (centres undefined) 2.51 µM [inhibitor, full curve]
CCCc1ccc(S(=O)(=O)N2CCC(Oc3ccc(-n4cnnn4)cc3)CC2)cc1 89.1 µM [inhibitor, single point]
CNC1(C)C2CCC(C2)C1(C)C (centres undefined) 0.0158 µM [inhibitor, full curve, poor fit]
CC(=O)Nc1ccc(-c2csc(NC(=O)C3CC(=O)N(c4ccc5c(c4)OCCO5)C3)n2)cc1 (centres undefined) 44.7 µM [inhibitor, partial curve, poor fit]
CCCCn1c(N)c(N(CC(C)C)C(=O)c2ccc(Br)o2)c(=O)[nH]c1=O 79.4 µM [inhibitor, partial curve]
Cc1ccc(CN(C)c2nc(-c3cccnc3)nc3ccccc23)o1 28.2 µM [inhibitor, full curve]
COC(=O)c1sc2nc(C)nc(SCC(=O)Nc3sccc3C(N)=O)c2c1C 1.41 µM [inhibitor, full curve, poor fit]
O=C(N/N=C/c1ccc([N+](=O)[O-])o1)c1ccc2c(c1)OCO2 89.1 µM [inhibitor, single point]
CC(=O)c1ccc(N2CCN(Cc3cc(=O)n4c(-c5ccccc5)csc4n3)CC2)cc1 25.1 µM [inhibitor, partial curve]
Cc1cccc(/C=N/NC(=O)c2cc(Br)ccc2OCc2ccccc2)n1 17.8 µM [inhibitor, full curve]
Cc1ccc(C2=N/C(=C/c3cccs3)C(=O)N2Nc2ccccc2)cc1 31.6 µM [inhibitor, partial curve, poor fit]
CCCN1CCC(=O)N(CCO)CC1 1.58 µM [inhibitor, full curve, poor fit]
CC1=NN(C(N)=S)C(=O)C1N=Nc1ccc(Cl)cc1Cl (centres undefined) 25.1 µM [inhibitor, full curve, poor fit]

Potency, inactive:
CC1CN(S(=O)(=O)c2ccc(C(=O)N(C)C3CCCCC3)cc2)CC(C)O1 (centres undefined)
COc1cc(NC(=O)CSc2nc(-c3ccc(C)cc3)nc3c2Cc2ccccc2O3)cc(OC)c1
Cc1c(CCO)c(=O)[nH]n1S(=O)(=O)c1cccc(C(F)(F)F)c1
S=c1nc[nH]c2nc[nH]c12
COC(=O)c1sc2cccc(F)c2c1S(=O)(=O)N1CCN(c2ccc(F)cc2)CC1
O=C(COc1ccccc1)NN1C(=O)CSC1=S
